These are yes or no findings as the source states them, for the method shown. Some results given as binding are weak or reduced against the parent protein; the word gives no strength.
Key:
Experiment in all cases: native gel or EMSA; nuclear extract from HDF-TERT cells (untreated or treated with IFNα or IFNγ for 24 hr) with a 32P-labeled DNA probe (E1A-ENH, Ad5 nt 271-288); composition of the DNA-protein complexes identified with specific antibodies to E2F, DP and Rb family members
[1] = molecular target: E2F1 (human (endogenous in HDF-TERT)) (UniProt Q01094)
[2] = molecular target: E2F3 (human (endogenous in HDF-TERT)) (UniProt O00716)
[3] = molecular target: E2F-4 (human (endogenous in HDF-TERT)) (UniProt Q16254)

Chains of the proteins cited; added tags and fusions are not shown. Lines headed by an entry give the natural chain unless they say otherwise; changes in a name come on top.
UniProt Q01094: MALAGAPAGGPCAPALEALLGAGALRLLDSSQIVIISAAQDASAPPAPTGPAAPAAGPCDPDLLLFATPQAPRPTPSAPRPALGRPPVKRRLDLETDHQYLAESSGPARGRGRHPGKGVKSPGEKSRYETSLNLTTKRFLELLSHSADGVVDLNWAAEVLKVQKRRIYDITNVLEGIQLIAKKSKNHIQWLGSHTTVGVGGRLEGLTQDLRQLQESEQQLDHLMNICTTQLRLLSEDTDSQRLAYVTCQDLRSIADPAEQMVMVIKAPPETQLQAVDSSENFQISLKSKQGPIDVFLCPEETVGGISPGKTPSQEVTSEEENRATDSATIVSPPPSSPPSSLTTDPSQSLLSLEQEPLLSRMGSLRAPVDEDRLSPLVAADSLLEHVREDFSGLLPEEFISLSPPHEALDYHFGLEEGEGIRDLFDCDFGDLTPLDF
UniProt O00716: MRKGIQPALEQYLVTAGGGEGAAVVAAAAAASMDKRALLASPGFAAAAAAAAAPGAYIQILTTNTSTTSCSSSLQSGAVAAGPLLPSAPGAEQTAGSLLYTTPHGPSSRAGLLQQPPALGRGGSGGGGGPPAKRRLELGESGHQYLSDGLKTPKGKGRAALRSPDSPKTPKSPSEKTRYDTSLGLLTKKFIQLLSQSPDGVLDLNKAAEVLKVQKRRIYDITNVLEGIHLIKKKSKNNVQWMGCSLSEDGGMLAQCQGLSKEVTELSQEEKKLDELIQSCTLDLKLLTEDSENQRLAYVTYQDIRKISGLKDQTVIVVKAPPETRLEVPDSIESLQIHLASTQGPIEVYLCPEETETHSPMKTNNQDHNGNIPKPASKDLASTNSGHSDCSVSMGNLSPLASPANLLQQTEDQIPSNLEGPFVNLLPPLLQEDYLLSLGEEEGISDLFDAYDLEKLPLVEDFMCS
UniProt Q16254: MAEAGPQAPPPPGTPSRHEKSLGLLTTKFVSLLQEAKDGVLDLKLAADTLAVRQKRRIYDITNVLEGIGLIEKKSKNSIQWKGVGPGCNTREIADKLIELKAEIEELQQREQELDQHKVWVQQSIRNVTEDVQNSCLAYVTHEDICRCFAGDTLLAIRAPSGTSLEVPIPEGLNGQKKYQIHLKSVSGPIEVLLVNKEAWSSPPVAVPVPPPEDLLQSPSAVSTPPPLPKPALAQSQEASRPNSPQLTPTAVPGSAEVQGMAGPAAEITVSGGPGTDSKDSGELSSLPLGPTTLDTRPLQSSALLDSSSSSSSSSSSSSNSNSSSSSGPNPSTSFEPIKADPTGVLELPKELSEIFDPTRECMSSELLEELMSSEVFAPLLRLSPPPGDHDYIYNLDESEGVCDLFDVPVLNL
UniProt Q14186: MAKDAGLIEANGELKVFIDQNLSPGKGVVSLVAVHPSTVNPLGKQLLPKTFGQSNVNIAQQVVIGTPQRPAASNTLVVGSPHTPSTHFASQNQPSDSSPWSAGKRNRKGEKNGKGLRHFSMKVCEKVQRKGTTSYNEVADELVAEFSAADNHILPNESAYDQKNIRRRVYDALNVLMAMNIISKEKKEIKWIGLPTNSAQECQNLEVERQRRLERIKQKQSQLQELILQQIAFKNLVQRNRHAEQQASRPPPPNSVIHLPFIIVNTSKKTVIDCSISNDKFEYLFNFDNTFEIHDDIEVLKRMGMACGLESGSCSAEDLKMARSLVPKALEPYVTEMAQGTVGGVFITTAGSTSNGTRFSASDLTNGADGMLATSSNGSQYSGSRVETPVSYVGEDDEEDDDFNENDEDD

Measured: binding

DP-1 (from UniProt Q14186 1-410)
binds: all assays above

Source: article PMC4726734
